PubChem BioAssay AID1347423 (Functional Genomics Laboratory (NCATS/FGL), 2020)
The campaign covered roughly 52,000 sequences. About 210 (0.4%) were called active.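 Rule for the calls: active = gene whose silencing raises cell survival under the drug, median off-target-corrected z-score across its silencing RNAs 2 or more; inactive = the rest.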 The list shows a part of the results.

Assay: Resistance to Poly (ADP-Ribose) Polymerase inhibitor: Gene Identification via Genome-wide siRNA Screen
Details: mouse BRCA2 R2336H ES cells, olaparib, CellTiter-Glo viability; hits give high values
Procedure, shortened: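 Mouse BRCA2 R2336H ES cells were reverse-transfected with siRNA (20 nM final), treated at 48 h with 500 nM olaparib, and read by CellTiter-Glo after 72 h. Scores: MAD-based z per siRNA, median per gene, seed off-target correction.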

Row | Sequence | z-score
1 | GCAGAAUUCACCCGAAACUTT against Tnip1 | inactive: 0.606
2 | CGAUAUCCCAACAGUAAUATT against Nalp6 | inactive: -0.337
3 | GGAGCUUCUAGACUGUACCTT against Lrmp | inactive: -0.51
4 | GGUGGUUAGCGAUGAGAAUTT against Pabpc2 | inactive: -0.515
5 | GGUAGAUCAUGGCCAUCCUTT against Ntf5 | inactive: -0.647
6 | GCUUAUACGAAGAUAAUUGTT against Hmgb1 | inactive: -0.826
7 | GGUCACUUUCAACCUCAUATT against 2310076L09Rik | inactive: -1.67
8 | GGCUGUCAUGCAUUAUAUGTT against Tcfeb | inactive: 0.176
9 | GGUGUUCAUGAGUGCUAUATT against Apg10l | inactive: -0.19
10 | CCAGACAUCGUGCUUUACATT against Chrna3 | inactive: 0.542
11 | GGAGGACCAUUGAAUUAUGTT against AI836003 | inactive: -0.371
12 | GGAGAUGGGCUUCUAUAUUTT against BC018399 | inactive: -1.08
13 | GGCCAACUUCCUUUUUAAATT against Tomm40 | inactive: 0.038
14 | GCUUCUAGGGACCUAUUAATT against Dhx30 | inactive: -1.2
15 | GCAUACAGGAUUUACCGGCTT against 2310056K19Rik | inactive: 1.2
16 | GGAUGUGAAGCAGUUCUAUTT against Cd81 | inactive: -0.702
17 | GGAGAUUGCAUCCUACCUGTT against Camta2 | inactive: 1.35
18 | GGCAAGAGCAAGAAAUGGCTT against Gprk6 | inactive: -0.597
19 | GCAGGCAAAGUUCCUGAUATT against Cdh2 | inactive: 0.743
20 | GGUGUUAUUUUACACAAAGTT against Gla | inactive: 0.526
21 | CGGUAGUCUUGUGUGUUGGTT against Rps27 | inactive: -0.0318
22 | GCCUGAGAAGAUUAUACCATT against Inpp5f | inactive: 0.000779
23 | GGCUGACUUCGUUUUCAUGTT against 1810063P04Rik | inactive: -0.916
24 | GGUUCUGUUCCAGUUUUAATT against Il21 | inactive: -0.214
25 | GGAAUUAGAAAAAGUUUCCTT against Ddx58 | inactive: 0.255
26 | GGCAUCGGGAGUUCCAAUUTT against St18 | inactive: 1.05
27 | GCAAGAAACGGGAACUAUUTT against 0610006F02Rik | inactive: 2.13

As entered above.
GGUUCUGUUCCAGUUUUAATT against Il21 – z-score: inactive: -0.214
CGAUAUCCCAACAGUAAUATT against Nalp6 – z-score: inactive: -0.337

Next results.

Row | Sequence | z-score
28 | GAGAUUUCUCCUGUUAUUUTT against Scd2 | inactive: 0.397
29 | GCAAAUUUGCCCUAAGGACTT against Lpl | inactive: -0.436
30 | GGGAAAUUUGAACAACAACTT against Efnb3 | inactive: 0.665
31 | GGAUGAUAUAUGUAACUUGTT against Nfe2l3 | inactive: -0.7
32 | GGCUUCAUGCCUUAUCCACTT against 4931415M17 | inactive: -0.441
33 | GGGAAUUAGAUGUGUGUAUTT against B930011P16Rik | inactive: -2.41
34 | CGUGCUUAAACUUACUCCATT against Kif18a | inactive: 0.32
35 | GGAGGUGUUGAACAAGUGCTT against 1700008P20Rik | inactive: -1.32
36 | GCACACUUACGUUCACAUATT against MGC117751 | inactive: -0.0197
37 | GCUUCUUGAAAGUACAUUGTT against Appbp1 | inactive: 0.298
38 | GGAUCUUGAUACCCUCUACTT against Gp1ba | inactive: 2.63
39 | GCGCGUCUCAAAGCACUUUTT against Tbx15 | inactive: 0.515
40 | CCGGAUCAAGAGCUUUACCTT against Trim29 | inactive: -0.00641
41 | GGGCUUGUAUCUACCAUGGTT against 6430510M02Rik | inactive: 1.53
42 | GGUUGGACUGACUAUCCAUTT against Olfr984 | inactive: -1.9
43 | CCAUCGUGCUAAUAAAUAATT against Gars | inactive: -1.02
44 | GCUGUGGUAAACUGAAACUTT against Glis2 | inactive: -1.11
45 | GGGACAGUUAGUCAGUAAGTT against 3000003F02Rik | inactive: 0.179
46 | CGGUGUAAAAUCAUCAUAGTT against Pcdhgb6 | inactive: -2.54
47 | GGAUGACUGAAUGAUGGGATT against Tcl1b5 | inactive: 1.27
48 | CCGGACCUUAUUGUCAUUUTT against 2010110M21Rik | inactive: 1.9
49 | GGAGAUGAAGGGUAGCAUCTT against Thap11 | inactive: 0.484
50 | CCCUUAAAAUACAACGAUCTT against Prnd | inactive: 0.85
51 | GGGAUGGCCUUUGGUUAAATT against V1rh11 | inactive: 0.916
52 | GAGUAUCAUCUCCUUUUCUTT against Olfr395 | inactive: 0.736
53 | GCCGAUUUUACAUGUGAUCTT against Klf8 | inactive: 0.6
54 | GCCUUAAUGUUUCUGUGAGTT against Pag | inactive: 0.192

In another format: entries from further up
GGGAAAUUUGAACAACAACTT against Efnb3
  z-score: inactive: 0.665
GGAUGAUAUAUGUAACUUGTT against Nfe2l3
  z-score: inactive: -0.7
GGCUUCAUGCCUUAUCCACTT against 4931415M17
  z-score: inactive: -0.441
GGGAAUUAGAUGUGUGUAUTT against B930011P16Rik
  z-score: inactive: -2.41

In a second layout: entries from further up.

| Row | Sequence | z-score |
| --- | --- | --- |
| 36 | GCACACUUACGUUCACAUATT against MGC117751 | inactive: -0.0197 |
| 51 | GGGAUGGCCUUUGGUUAAATT against V1rh11 | inactive: 0.916 |

Further entries follow.

Row | Sequence | z-score
55 | GGUGAACCUCAACAGACUCTT against Gtf3c4 | inactive: -1.22
56 | GGAAGAGACGCAAUAAGUGTT against Loh12cr1 | inactive: -0.574
57 | GCCCAUUAAUGCGUAUUUUTT against Mettl2 | inactive: -0.659
58 | GGGCGAGAUUACCAUCUUGTT against Tnfrsf19l | inactive: 0.683
59 | GGAGAGAAUAAACUCUACUTT against Tas2r130 | inactive: 0.477
60 | GGUGCUGAUGAUGAUUAAATT against 0610039D01Rik | inactive: 1.14
61 | GGUGAAGGUUAAAGAUAUUTT against Pcdha1 | inactive: 0.263
62 | CCUUCUGUUGCUUAUACAUTT against 3110005G23Rik | inactive: 0.123
63 | GGAGUUUGCCAGUGAAUUUTT against Ptpn8 | inactive: 0.67
64 | GGGAUUUCAUAACUGCACUTT against Btrc | inactive: 0.784
65 | GCUUUGAUUCAUAAACAAGTT against 4932432N11Rik | inactive: 1.22
66 | GGCUGGGUUCCAAAAUACUTT against Crbn | inactive: 0.0863
67 | GCAAAAACGCAAGAUCUUCTT against 1110060O18Rik | inactive: 0.246
68 | GGAGAUUGUUGACCUGGUCTT against Tuba7 | inactive: 0.808
69 | GGUGAAGAUAAGUAUCUGCTT against Mug2 | inactive: 1.3
70 | GGUUCUGUAUUUAUCUUAGTT against Olfr448 | inactive: 0.0801
71 | GGCUAACUCCUUAAAACCUTT against Pycs | inactive: -2.19
72 | GUACAAGCUCAAGUGCUCGTT against BC035954 | inactive: -0.0504
73 | GGGACUGUACCCAGUUUAATT against Ccl27 | inactive: 1.79
74 | GGCAACGGAAUUCCUUAAGTT against Dapk1 | inactive: 3.06
75 | GUCUUUGGAAAUCUACUCATT against Olfr1189 | inactive: -1.52
76 | CCAAUACCAUGACAUUGGGTT against Fabp1 | inactive: 0.34
77 | CCAGAAUGCUAGACACUGCTT against Aplra1 | inactive: -0.592
78 | GGAUGAGCAAUAAUAGAAUTT against Ott | inactive: -1.97
79 | GGAGAUUGAGGCACUGAAGTT against Srms | inactive: 0.603
80 | GGACACCAAUCACAUUUGATT against Cngb3 | inactive: -0.644
81 | GGGCUUUGUUCGUGGUACATT against C030039L03Rik | inactive: 1.88

Row | Sequence | z-score
82 | GCGCAGACUUACAAUUAUUTT against Bms1l | inactive: -2.53
83 | GCUAGGUCAGGGAGUUUUATT against Exosc2 | inactive: -0.802
84 | GGACUGAACUUCUCAAUGUTT against Folr1 | inactive: 1.12
85 | GGAGUGGACAAUUUCUUUATT against B230374F23Rik | inactive: -0.261
86 | CCAUAUUUCGCUAUGGUGCTT against C87436 | inactive: 1.25
87 | GGCUUUGGACUGUAUGACCTT against 2510048L02Rik | inactive: -0.361
88 | GGACAGUAUAGUGGAGAUCTT against Fgf22 | inactive: -1.71
89 | GGGUGAAAACUCAUUUUAUTT against St6gal2 | inactive: 2.21
90 | GGAUGAUUGCUGACGUGGATT against Bax | inactive: 2.19
91 | GCUGUACUAUGCUAAAAGGTT against Ghr | inactive: 1.18
92 | GCAAACUUAAAGUGUCUCUTT against Ewsr1 | inactive: 0.349
93 | GCCUUCAUCACUUACACGUTT against Sstr5 | inactive: 1.13
94 | GGCUCAGAUCAGAACUACGTT against Inpp4a | inactive: -0.175
95 | GGUGAAAUCCAGGAGUUUUTT against Rhoe | inactive: 1.48
96 | GGCUCAAGGCAUUGAAGGATT against 1810042K04Rik | inactive: -0.255
97 | GGACCAGCAAACUAAGAGATT against 4930449I24Rik | inactive: -0.257
98 | CCCUCGGUAGCAAUAUAAATT against Ncoa2 | inactive: 2.14
99 | GGUCAAGGAGUUCAUUCUGTT against Matn2 | inactive: 0.198
100 | GCUAAGAAGCAGACUUCAUTT against D6Wsu116e | inactive: -2.37
101 | GCUGGGUAAAUACCAGCAATT against Slc6a14 | inactive: 1.01
102 | GGCUGCAUUUCCAAAUGAUTT against 4933405K07Rik | inactive: 0.239
103 | CGUACAACCCAGGAGUUCUTT against Phxr1 | inactive: 0.732
104 | GCCAAAUCAGGAACAGCACTT against Trim29 | inactive: 1.36
105 | CCCUGUAUAUAUGAUGACATT against Ldhd | inactive: -2.2
